Reference: the supplement of paper PMC8728848
This is one part of the list.

Key:
Assay in all cases: glycan array binding signal (z-score within array); higher = stronger binding
Details in all cases: glycan notation: IUPAC condensed, linker removed; mutation: R201A
[1] = biological target: Fuc(a1-2)[Gal(a1-3)]Gal(b1-4)GlcNAc(b1-2)Man(a1-3)[Fuc(a1-2)[Gal(a1-3)]Gal(b1-4)GlcNAc(b1-2)Man(a1-6)]Man(b1-4)GlcNAc(b1-4)GlcNAc
Outline: (§1)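 Glycan array data came from 3228 arrays in the Consortium for Functional Glycomics database, and only arrays with an available protein sequence were kept. Glycan names were put into IUPAC-condensed notation, and columns mapping to the same glycan were averaged. The binding signal is a within-array Z-score, averaged across arrays of one protein sequence run at different concentrations or buffers and across linkers. A negative Z-score can be read as non-binding.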

[2] = biological target: Fuc(a1-2)[Gal(a1-3)]Gal(b1-4)GlcNAc(b1-2)Man(a1-3)[Fuc(a1-2)[Gal(a1-3)]Gal(b1-4)GlcNAc(b1-2)Man(a1-6)]Man(b1-4)GlcNAc(b1-4)[Fuc(a1-6)]GlcNAc
Outline: as §1

[3] = biological target: Fuc(a1-2)[Gal(a1-3)]Gal(b1-4)GlcNAc(b1-3)GalNAc
Outline: as §1

[4] = biological target: Fuc(a1-2)[Gal(a1-3)]Gal(b1-4)GlcNAc(b1-3)[Fuc(a1-2)[Gal(a1-3)]Gal(b1-4)GlcNAc(b1-6)]GalNAc
Outline: as §1

[5] = biological target: Fuc(a1-2)[Gal(a1-3)]Gal(b1-4)GlcNAc(b1-6)GalNAc
Outline: as §1

[6] = biological target: Fuc(a1-2)[Gal(a1-3)]Gal(b1-4)[Fuc(a1-3)]Glc
Outline: as §1

[7] = biological target: Fuc(a1-2)[Gal(a1-3)]Gal(b1-4)[Fuc(a1-3)]GlcNAc
Outline: as §1

[8] = biological target: Fuc(a1-2)[Gal(a1-3)]Gal(b1-4)[Fuc(a1-3)]GlcNAc(b1-3)GalNAc
Outline: as §1

[9] = biological target: Fuc(a1-2)[Gal(a1-4)]Gal(b1-4)GlcNAc
Outline: as §1

[10] = biological target: Fuc(a1-2)[GalNAc(a1-3)]Gal
Outline: as §1

[11] = biological target: Fuc(a1-2)[GalNAc(a1-3)]Gal(b1-3)GalNAc(a1-3)[Fuc(a1-2)]Gal(b1-4)GlcNAc
Outline: as §1

[12] = biological target: Fuc(a1-2)[GalNAc(a1-3)]Gal(b1-3)GalNAc(b1-3)Gal(a1-4)Gal(b1-4)Glc
Outline: as §1

[13] = biological target: Fuc(a1-2)[GalNAc(a1-3)]Gal(b1-3)GlcNAc
Outline: as §1

[14] = biological target: Fuc(a1-2)[GalNAc(a1-3)]Gal(b1-3)GlcNAc(b1-2)Man(a1-3)[Fuc(a1-2)[GalNAc(a1-3)]Gal(b1-3)GlcNAc(b1-2)Man(a1-6)]Man(b1-4)GlcNAc(b1-4)GlcNAc
Outline: as §1

[15] = biological target: Fuc(a1-2)[GalNAc(a1-3)]Gal(b1-3)GlcNAc(b1-2)Man(a1-3)[Fuc(a1-2)[GalNAc(a1-3)]Gal(b1-3)GlcNAc(b1-2)Man(a1-6)]Man(b1-4)GlcNAc(b1-4)[Fuc(a1-6)]GlcNAc
Outline: as §1

[16] = biological target: Fuc(a1-2)[GalNAc(a1-3)]Gal(b1-3)GlcNAc(b1-3)GalNAc
Outline: as §1

[17] = biological target: Fuc(a1-2)[GalNAc(a1-3)]Gal(b1-3)GlcNAc(b1-6)GalNAc
Outline: as §1

[18] = biological target: Fuc(a1-2)[GalNAc(a1-3)]Gal(b1-4)Glc
Outline: as §1

[19] = biological target: Fuc(a1-2)[GalNAc(a1-3)]Gal(b1-4)GlcNAc
Outline: as §1

[20] = biological target: Fuc(a1-2)[GalNAc(a1-3)]Gal(b1-4)GlcNAc(b1-2)Man
Outline: as §1

[21] = biological target: Fuc(a1-2)[GalNAc(a1-3)]Gal(b1-4)GlcNAc(b1-2)Man(a1-3)[Fuc(a1-2)[GalNAc(a1-3)]Gal(b1-4)GlcNAc(b1-2)Man(a1-6)]Man(b1-4)GlcNAc(b1-4)GlcNAc
Outline: as §1

[22] = biological target: Fuc(a1-2)[GalNAc(a1-3)]Gal(b1-4)GlcNAc(b1-2)Man(a1-3)[Fuc(a1-2)[GalNAc(a1-3)]Gal(b1-4)GlcNAc(b1-2)Man(a1-6)]Man(b1-4)GlcNAc(b1-4)[Fuc(a1-6)]GlcNAc
Outline: as §1

[23] = biological target: Fuc(a1-2)[GalNAc(a1-3)]Gal(b1-4)GlcNAc(b1-3)Gal(b1-4)GlcNAc
Outline: as §1

[24] = biological target: Fuc(a1-2)[GalNAc(a1-3)]Gal(b1-4)GlcNAc(b1-3)Gal(b1-4)GlcNAc(b1-3)Gal(b1-4)GlcNAc
Outline: as §1

[25] = biological target: Fuc(a1-2)[GalNAc(a1-3)]Gal(b1-4)GlcNAc(b1-3)GalNAc
Outline: as §1

[26] = biological target: Fuc(a1-2)[GalNAc(a1-3)]Gal(b1-4)GlcNAc(b1-3)[Fuc(a1-2)[GalNAc(a1-3)]Gal(b1-4)GlcNAc(b1-6)]GalNAc
Outline: as §1

[27] = biological target: Fuc(a1-2)[GalNAc(a1-3)]Gal(b1-4)GlcNAc(b1-6)GalNAc
Outline: as §1

[28] = biological target: Fuc(a1-2)[GalNAc(a1-3)]Gal(b1-4)[Fuc(a1-3)]GlcNAc
Outline: as §1

[29] = biological target: Fuc(a1-2)[GalNAc(a1-3)]Gal(b1-4)[Fuc(a1-3)]GlcNAc(b1-3)GalNAc
Outline: as §1

[30] = biological target: Fuc(a1-2)[GalNAc(a1-4)]Gal(b1-4)GlcNAc
Outline: as §1

[31] = biological target: Fuc(a1-2)[GalNAc(b1-3)]Gal
Outline: as §1

Fuc(a1-3)GlcNAc = biological target: Fuc(a1-3)GlcNAc
Outline: as §1

[32] = biological target: Fuc(a1-3)[Gal(b1-4)]Glc6S
Outline: as §1

[33] = biological target: Fuc(a1-3)[Gal(b1-4)]GlcNAc
Outline: as §1

[34] = biological target: Fuc(a1-3)[Gal(b1-4)]GlcNAc(b1-2)Man
Outline: as §1

[35] = biological target: Fuc(a1-3)[Gal(b1-4)]GlcNAc(b1-2)Man(a1-3)[Fuc(a1-3)[Gal(b1-4)]GlcNAc(b1-2)Man(a1-6)]Man(b1-4)GlcNAc(b1-4)GlcNAc
Outline: as §1

[36] = biological target: Fuc(a1-3)[Gal(b1-4)]GlcNAc(b1-2)Man(a1-3)[Fuc(a1-3)[Gal(b1-4)]GlcNAc(b1-2)Man(a1-6)]Man(b1-4)GlcNAc(b1-4)[Fuc(a1-6)]GlcNAc
Outline: as §1

[37] = biological target: Fuc(a1-3)[Gal(b1-4)]GlcNAc(b1-3)Gal(b1-3)[Fuc(a1-4)]GlcNAc
Outline: as §1

[38] = biological target: Fuc(a1-3)[Gal(b1-4)]GlcNAc(b1-3)Gal(b1-4)[Fuc(a1-3)]GlcNAc
Outline: as §1

[39] = biological target: Fuc(a1-3)[Gal(b1-4)]GlcNAc(b1-3)Gal(b1-4)[Fuc(a1-3)]GlcNAc(b1-3)Gal(b1-4)[Fuc(a1-3)]GlcNAc
Outline: as §1

[40] = biological target: Fuc(a1-3)[Gal(b1-4)]GlcNAc(b1-3)GalNAc
Outline: as §1

[41] = biological target: Fuc(a1-3)[Gal(b1-4)]GlcNAc(b1-6)GalNAc
Outline: as §1

[42] = biological target: Fuc(a1-3)[Gal(b1-4)]GlcNAc(b1-6)[Gal(b1-3)GlcNAc(b1-3)]Gal(b1-4)Glc
Outline: as §1

[43] = biological target: Fuc(a1-3)[Gal(b1-4)]GlcNAc6S
Outline: as §1

[44] = biological target: Fuc(a1-3)[Gal3S(b1-4)]Glc
Outline: as §1

[45] = biological target: Fuc(a1-3)[Gal3S(b1-4)]GlcNAc
Outline: as §1

[46] = biological target: Fuc(a1-3)[Gal3S(b1-4)]GlcNAc6S
Outline: as §1

[47] = biological target: Fuc(a1-3)[GalNAc(b1-4)]GlcNAc
Outline: as §1

[48] = biological target: Fuc(a1-3)[GalNAc(b1-4)]GlcNAc6S
Outline: as §1

Fuc(a1-4)GlcNAc = biological target: Fuc(a1-4)GlcNAc
Outline: as §1

Fuc(b1-3)GlcNAc = biological target: Fuc(b1-3)GlcNAc
Outline: as §1

Gal(a1-2)Gal = biological target: Gal(a1-2)Gal
Outline: as §1

Gal(a1-3)Gal = biological target: Gal(a1-3)Gal
Outline: as §1

Gal(a1-3)Gal(b1-3)GlcNAc = biological target: Gal(a1-3)Gal(b1-3)GlcNAc
Outline: as §1

[49] = biological target: Gal(a1-3)Gal(b1-3)GlcNAc(b1-2)Man
Outline: as §1

[50] = biological target: Gal(a1-3)Gal(b1-3)GlcNAc(b1-2)Man(a1-3)[Gal(a1-3)Gal(b1-3)GlcNAc(b1-2)Man(a1-6)]Man(b1-4)GlcNAc(b1-4)GlcNAc
Outline: as §1

[51] = biological target: Gal(a1-3)Gal(b1-3)GlcNAc(b1-3)GalNAc
Outline: as §1

[52] = biological target: Gal(a1-3)Gal(b1-3)GlcNAc(b1-6)GalNAc
Outline: as §1

[53] = biological target: Gal(a1-3)Gal(b1-3)[Fuc(a1-4)]GlcNAc(b1-2)Man(a1-3)[Gal(a1-3)Gal(b1-3)[Fuc(a1-4)]GlcNAc(b1-2)Man(a1-6)]Man(b1-4)GlcNAc(b1-4)GlcNAc
Outline: as §1

Gal(a1-3)Gal(b1-4)Glc = biological target: Gal(a1-3)Gal(b1-4)Glc
Outline: as §1

B1: OS9 (Arabidopsis thaliana) (protein)
chain: MRGSHHHHHHGMASMTGGQQMGRDLYDDDDKSRLQIFPAHLVGTFSRNNREPKYKIEFLPEDSPFHPGDNLESMVMLDKHGNRFLCYLPKEEKATSGWTSSQQNISTVMMETQQLVKLKTPDELLQPLSEKCLFRQEGWWSYEFCHQKYVRQLHVEDENKIVQEFFLGTFDPEATAAFNQTVSDASTDASQRYHSHVYTNGTTCDLTGSPAEVEVRFVCAETRAMVTSITELSTCKYALTVQCPTLCKHPLFQLEKPVSHTIHCNAIPVEEDATRNKEEQAVDESPKMIADS
- glycan array binding signal (z-score) [1]: -0.237
- glycan array binding signal (z-score) [2]: -0.309
- glycan array binding signal (z-score) [3]: -0.385
- glycan array binding signal (z-score) [4]: 1.25
- glycan array binding signal (z-score) [5]: -0.223
- glycan array binding signal (z-score) [6]: -0.035
- glycan array binding signal (z-score) [7]: 0.17
- glycan array binding signal (z-score) [8]: -0.809
- glycan array binding signal (z-score) [9]: -0.617
- glycan array binding signal (z-score) [10]: -0.65
- glycan array binding signal (z-score) [11]: -0.723
- glycan array binding signal (z-score) [12]: 0.593
- glycan array binding signal (z-score) [13]: -1.09
- glycan array binding signal (z-score) [14]: -0.508
- glycan array binding signal (z-score) [15]: -1.14
- glycan array binding signal (z-score) [16]: -0.027
- glycan array binding signal (z-score) [17]: -0.314
- glycan array binding signal (z-score) [18]: 0.109
- glycan array binding signal (z-score) [19]: -0.356
- glycan array binding signal (z-score) [20]: 0.105
- glycan array binding signal (z-score) [21]: 1.51
- glycan array binding signal (z-score) [22]: -0.739
- glycan array binding signal (z-score) [23]: -0.887
- glycan array binding signal (z-score) [24]: 2.49
- glycan array binding signal (z-score) [25]: -0.487
- glycan array binding signal (z-score) [26]: 0.058
- glycan array binding signal (z-score) [27]: -1.09
- glycan array binding signal (z-score) [28]: 1.98
- glycan array binding signal (z-score) [29]: -0.406
- glycan array binding signal (z-score) [30]: -0.156
- glycan array binding signal (z-score) [31]: -0.349
- glycan array binding signal (z-score) (Fuc(a1-3)GlcNAc): -0.457
- glycan array binding signal (z-score) [32]: -0.113
- glycan array binding signal (z-score) [33]: -0.184
- glycan array binding signal (z-score) [34]: -0.154
- glycan array binding signal (z-score) [35]: -1.38
- glycan array binding signal (z-score) [36]: 3.48
- glycan array binding signal (z-score) [37]: 0.176
- glycan array binding signal (z-score) [38]: 0.261
- glycan array binding signal (z-score) [39]: 0.538
- glycan array binding signal (z-score) [40]: -0.955
- glycan array binding signal (z-score) [41]: 1.02
- glycan array binding signal (z-score) [42]: 0.467
- glycan array binding signal (z-score) [43]: -0.678
- glycan array binding signal (z-score) [44]: -0.61
- glycan array binding signal (z-score) [45]: 0.043
- glycan array binding signal (z-score) [46]: -0.151
- glycan array binding signal (z-score) [47]: 0.67
- glycan array binding signal (z-score) [48]: -0.68
- glycan array binding signal (z-score) (Fuc(a1-4)GlcNAc): 2.18
- glycan array binding signal (z-score) (Fuc(b1-3)GlcNAc): 0.293
- glycan array binding signal (z-score) (Gal(a1-2)Gal): 0.805
- glycan array binding signal (z-score) (Gal(a1-3)Gal): 0.103
- glycan array binding signal (z-score) (Gal(a1-3)Gal(b1-3)GlcNAc): -0.095
- glycan array binding signal (z-score) [49]: 1.71
- glycan array binding signal (z-score) [50]: 0.219
- glycan array binding signal (z-score) [51]: 1.65
- glycan array binding signal (z-score) [52]: -0.999
- glycan array binding signal (z-score) [53]: 1.34
- glycan array binding signal (z-score) (Gal(a1-3)Gal(b1-4)Glc): 0.911
